{"source": "the supplement of paper PMC10735217", "system": "HEK293A TEAD-LUC reporter", "assay": "TEAD-luciferase reporter activity (YAP activation), robust Z score vs plate; higher = stronger YAP/TEAD activation", "details": "24 h", "note": "Some of the results follow. Single values are uncertain here, since repeats match poorly.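 The human kidney-derived cells carry a stably integrated construct of eight TEAD-binding elements driving luciferase, read by luminescence in a drug-repurposing library screen. A compound counts as a hit when its signal is more than five robust Z scores above the plate mean.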", "data": [{"smiles": "Cc1ccc2c(c1)c(-c1ccccc1)nn2CCCN(C)C", "values": [{"measurement": "TEAD-luciferase reporter activity", "setting": "compound concentration: 200 nM", "result": "inactive: 0.686"}, {"measurement": "TEAD-luciferase reporter activity", "setting": "compound concentration: 2 uM", "result": "inactive: -0.0747"}, {"measurement": "TEAD-luciferase reporter activity", "setting": "compound concentration: 10 uM", "result": "active: 5.86"}]}, {"smiles": "CC(C)OC(=O)CNc1cccc(CN(Cc2ccc(-n3cccn3)cc2)S(=O)(=O)c2cccnc2)n1", "values": [{"measurement": "TEAD-luciferase reporter activity", "setting": "compound concentration: 200 nM", "result": "inactive: 2.87"}, {"measurement": "TEAD-luciferase reporter activity", "setting": "compound concentration: 2 uM", "result": "inactive: -0.401"}, {"measurement": "TEAD-luciferase reporter activity", "setting": "compound concentration: 10 uM", "result": "inactive: 0.252"}]}, {"smiles": "CC1(C)SCCN(S(=O)(=O)c2ccc(OCC#CCO)cc2)[C@H]1C(=O)NO", "note": "[Apratastat]", "values": [{"measurement": "TEAD-luciferase reporter activity", "setting": "compound concentration: 200 nM", "result": "inactive: -2.17"}, {"measurement": "TEAD-luciferase reporter activity", "setting": "compound concentration: 2 uM", "result": "inactive: -1.28"}, {"measurement": "TEAD-luciferase reporter activity", "setting": "compound concentration: 10 uM", "result": "inactive: 4.28"}]}, {"smiles": "CCc1c2c(nc3ccc(OCCCNC(=O)CNC(=O)CNC(=O)CN)cc13)-c1cc3c(c(=O)n1C2)COC(=O)[C@@]3(O)CC", "values": [{"measurement": "TEAD-luciferase reporter activity", "setting": "compound concentration: 200 nM", "result": "inactive: 0.763"}, {"measurement": "TEAD-luciferase reporter activity", "setting": "compound concentration: 2 uM", "result": "inactive: -0.111"}, {"measurement": "TEAD-luciferase reporter activity", "setting": "compound concentration: 10 uM", "result": "inactive: -1.31"}]}, {"smiles": "COc1ccc2[nH]c(C)c(CC(=O)NO)c2c1", "values": [{"measurement": "TEAD-luciferase reporter activity", "setting": "compound concentration: 200 nM", "result": "inactive: 0.229"}, {"measurement": "TEAD-luciferase reporter activity", "setting": "compound concentration: 2 uM", "result": "inactive: -0.407"}, {"measurement": "TEAD-luciferase reporter activity", "setting": "compound concentration: 10 uM", "result": "inactive: 1.97"}]}, {"smiles": "O=C(NOC[C@H](O)CO)c1ccc(F)c(F)c1Nc1ccc(I)cc1F", "values": [{"measurement": "TEAD-luciferase reporter activity", "setting": "compound concentration: 200 nM", "result": "inactive: -1.27"}, {"measurement": "TEAD-luciferase reporter activity", "setting": "compound concentration: 2 uM", "result": "inactive: -0.788"}, {"measurement": "TEAD-luciferase reporter activity", "setting": "compound concentration: 10 uM", "result": "inactive: -0.567"}]}, {"smiles": "CCCC(=O)O[C@]1(C(=O)CC)CC[C@H]2[C@@H]3CCC4=CC(=O)CCC4(C)[C@H]3[C@@H](O)CC21C", "note": "(some centres not stated)", "values": [{"measurement": "TEAD-luciferase reporter activity", "setting": "compound concentration: 200 nM", "result": "inactive: 0.301"}, {"measurement": "TEAD-luciferase reporter activity", "setting": "compound concentration: 2 uM", "result": "inactive: 2.52"}, {"measurement": "TEAD-luciferase reporter activity", "setting": "compound concentration: 10 uM", "result": "inactive: 2.62"}]}, {"smiles": "CN(C)C(=O)C(CCN1CCC(O)(c2ccc(Cl)cc2)CC1)(c1ccccc1)c1ccccc1", "values": [{"measurement": "TEAD-luciferase reporter activity", "setting": "compound concentration: 200 nM", "result": "inactive: -1.46"}, {"measurement": "TEAD-luciferase reporter activity", "setting": "compound concentration: 10 uM", "result": "inactive: -0.44"}]}, {"smiles": "CC(=O)NCCn1c(C)cc(C=O)c1C", "note": "[Aloracetam]", "values": [{"measurement": "TEAD-luciferase reporter activity", "setting": "compound concentration: 200 nM", "result": "inactive: -0.53"}, {"measurement": "TEAD-luciferase reporter activity", "setting": "compound concentration: 2 uM", "result": "inactive: -1.23"}, {"measurement": "TEAD-luciferase reporter activity", "setting": "compound concentration: 10 uM", "result": "inactive: -0.326"}]}, {"smiles": "CO/N=C(/OC(=O)c1ccc(C(=O)C(C)(C)C)cc1)c1ccc(C(=O)C(C)(C)C)cc1", "values": [{"measurement": "TEAD-luciferase reporter activity", "setting": "compound concentration: 200 nM", "result": "inactive: 0.197"}, {"measurement": "TEAD-luciferase reporter activity", "setting": "compound concentration: 2 uM", "result": "inactive: 3.22"}, {"measurement": "TEAD-luciferase reporter activity", "setting": "compound concentration: 10 uM", "result": "inactive: 0.147"}]}, {"smiles": "CCNC(=O)c1cnc2n1CCc1ccccc1C21CCNCC1", "values": [{"measurement": "TEAD-luciferase reporter activity", "setting": "compound concentration: 200 nM", "result": "inactive: 0.258"}, {"measurement": "TEAD-luciferase reporter activity", "setting": "compound concentration: 2 uM", "result": "inactive: -0.487"}, {"measurement": "TEAD-luciferase reporter activity", "setting": "compound concentration: 10 uM", "result": "inactive: -0.407"}]}, {"smiles": "O=C(O)c1cc(=O)c2cc(OCC(O)COc3cccc4oc(C(=O)O)cc(=O)c34)ccc2o1", "note": "(configuration not stated)", "values": [{"measurement": "TEAD-luciferase reporter activity", "setting": "compound concentration: 200 nM", "result": "inactive: -0.467"}, {"measurement": "TEAD-luciferase reporter activity", "setting": "compound concentration: 2 uM", "result": "inactive: -0.947"}, {"measurement": "TEAD-luciferase reporter activity", "setting": "compound concentration: 10 uM", "result": "inactive: 1.19"}]}, {"smiles": "Nc1nc(N2CCN(C(=O)c3ccc(OCc4ccccc4)cc3)CC2)nc2ccccc12", "values": [{"measurement": "TEAD-luciferase reporter activity", "setting": "compound concentration: 200 nM", "result": "inactive: -2.05"}, {"measurement": "TEAD-luciferase reporter activity", "setting": "compound concentration: 2 uM", "result": "inactive: 0.859"}, {"measurement": "TEAD-luciferase reporter activity", "setting": "compound concentration: 10 uM", "result": "inactive: 3.34"}]}, {"smiles": "CNc1nc(Nc2ccc(-n3cnc(C)n3)c(OC)c2)nc2c1CC[C@H]2c1ccc(F)cc1", "values": [{"measurement": "TEAD-luciferase reporter activity", "setting": "compound concentration: 200 nM", "result": "inactive: -1.46"}, {"measurement": "TEAD-luciferase reporter activity", "setting": "compound concentration: 2 uM", "result": "inactive: 0.592"}, {"measurement": "TEAD-luciferase reporter activity", "setting": "compound concentration: 10 uM", "result": "inactive: -0.821"}]}, {"smiles": "c1ccc(/N=C(\\NC2=NCCCCCC2)N2CCOCC2)cc1", "values": [{"measurement": "TEAD-luciferase reporter activity", "setting": "compound concentration: 200 nM", "result": "inactive: 1.27"}, {"measurement": "TEAD-luciferase reporter activity", "setting": "compound concentration: 2 uM", "result": "inactive: -1.11"}, {"measurement": "TEAD-luciferase reporter activity", "setting": "compound concentration: 10 uM", "result": "inactive: 1.56"}]}, {"smiles": "CC[C@H](C)[C@@H](NC(=O)[C@@H](Cc1ccc(O)cc1)NC(=O)[C@@H](N)C(C)C)C(=O)N[C@@H](Cc1cnc[nH]1)C(=O)N1CCC[C@@H]1C(=O)N[C@@H](Cc1ccccc1)C(=O)O", "values": [{"measurement": "TEAD-luciferase reporter activity", "setting": "compound concentration: 200 nM", "result": "inactive: -0.609"}, {"measurement": "TEAD-luciferase reporter activity", "setting": "compound concentration: 2 uM", "result": "inactive: -1.16"}, {"measurement": "TEAD-luciferase reporter activity", "setting": "compound concentration: 10 uM", "result": "active: 5.18"}]}, {"smiles": "NCC(=O)O", "values": [{"measurement": "TEAD-luciferase reporter activity", "setting": "compound concentration: 200 nM", "result": "inactive: 2.4"}, {"measurement": "TEAD-luciferase reporter activity", "setting": "compound concentration: 10 uM", "result": "inactive: -1.62"}]}, {"smiles": "NCC(=O)O", "note": "[Glycine]", "values": [{"measurement": "TEAD-luciferase reporter activity", "setting": "compound concentration: 2 uM", "result": "inactive: -0.187"}]}, {"smiles": "COc1ccccc1C(C(=O)O)=C(c1ccccc1)c1ccccc1", "values": [{"measurement": "TEAD-luciferase reporter activity", "setting": "compound concentration: 200 nM", "result": "inactive: 2.81"}, {"measurement": "TEAD-luciferase reporter activity", "setting": "compound concentration: 2 uM", "result": "inactive: -0.235"}, {"measurement": "TEAD-luciferase reporter activity", "setting": "compound concentration: 10 uM", "result": "inactive: 1.26"}]}, {"smiles": "CC(=C/C=C/C(C)=C/C(=O)O)/C=C1\\CCCc2ccccc21", "values": [{"measurement": "TEAD-luciferase reporter activity", "setting": "compound concentration: 200 nM", "result": "inactive: -0.773"}, {"measurement": "TEAD-luciferase reporter activity", "setting": "compound concentration: 2 uM", "result": "inactive: 0.172"}, {"measurement": "TEAD-luciferase reporter activity", "setting": "compound concentration: 10 uM", "result": "inactive: -1.01"}]}, {"smiles": "COc1cc(OC)c2c(C)c(C(=O)c3ccc(Br)cc3)oc2c1", "values": [{"measurement": "TEAD-luciferase reporter activity", "setting": "compound concentration: 200 nM", "result": "inactive: -0.977"}, {"measurement": "TEAD-luciferase reporter activity", "setting": "compound concentration: 2 uM", "result": "inactive: 1.27"}, {"measurement": "TEAD-luciferase reporter activity", "setting": "compound concentration: 10 uM", "result": "inactive: -0.52"}]}, {"smiles": "CC(C)(N)[C@H](NC(=O)c1ccc(C#CC#C[C@H]2C[C@@H]2CO)cc1)C(=O)NO", "values": [{"measurement": "TEAD-luciferase reporter activity", "setting": "compound concentration: 200 nM", "result": "inactive: -1.44"}, {"measurement": "TEAD-luciferase reporter activity", "setting": "compound concentration: 2 uM", "result": "inactive: -0.577"}, {"measurement": "TEAD-luciferase reporter activity", "setting": "compound concentration: 10 uM", "result": "inactive: -0.396"}]}, {"smiles": "CCN(CC)CCOC(=O)Cc1cccc2c(=O)cc(-c3ccccc3)oc12", "values": [{"measurement": "TEAD-luciferase reporter activity", "setting": "compound concentration: 200 nM", "result": "inactive: 0.633"}, {"measurement": "TEAD-luciferase reporter activity", "setting": "compound concentration: 2 uM", "result": "inactive: -0.65"}, {"measurement": "TEAD-luciferase reporter activity", "setting": "compound concentration: 10 uM", "result": "inactive: 0.965"}]}, {"smiles": "Cc1cc(N2CCSCC2)c(C#N)c(C)n1", "values": [{"measurement": "TEAD-luciferase reporter activity", "setting": "compound concentration: 200 nM", "result": "inactive: -1.64"}, {"measurement": "TEAD-luciferase reporter activity", "setting": "compound concentration: 2 uM", "result": "inactive: 3.46"}, {"measurement": "TEAD-luciferase reporter activity", "setting": "compound concentration: 10 uM", "result": "inactive: 0.898"}]}, {"smiles": "Cc1c(F)c(N2CC[C@H](N)C2)nc2c1c(=O)c(C(=O)O)cn2-c1ccc(F)cc1F", "values": [{"measurement": "TEAD-luciferase reporter activity", "setting": "compound concentration: 200 nM", "result": "inactive: -0.0342"}, {"measurement": "TEAD-luciferase reporter activity", "setting": "compound concentration: 2 uM", "result": "inactive: 2.25"}, {"measurement": "TEAD-luciferase reporter activity", "setting": "compound concentration: 10 uM", "result": "inactive: 0.417"}]}, {"smiles": "O=C(O)c1ccc2c(c1)nc(-c1ccc(OCc3cc(N4CCCC4=O)ccc3-c3ccc(Cl)cc3)cc1F)n2C1CCCCC1", "values": [{"measurement": "TEAD-luciferase reporter activity", "setting": "compound concentration: 200 nM", "result": "inactive: 0.756"}, {"measurement": "TEAD-luciferase reporter activity", "setting": "compound concentration: 2 uM", "result": "inactive: -1.72"}, {"measurement": "TEAD-luciferase reporter activity", "setting": "compound concentration: 10 uM", "result": "inactive: -0.959"}]}, {"smiles": "COC(=O)N[C@H](C(=O)N1CCC[C@H]1C(=O)N[C@H](C(=O)C(F)(F)F)C(C)C)C(C)C", "values": [{"measurement": "TEAD-luciferase reporter activity", "setting": "compound concentration: 200 nM", "result": "inactive: -0.345"}, {"measurement": "TEAD-luciferase reporter activity", "setting": "compound concentration: 2 uM", "result": "inactive: 1.41"}, {"measurement": "TEAD-luciferase reporter activity", "setting": "compound concentration: 10 uM", "result": "inactive: 1.25"}]}]}
